These are yes or no findings as the source states them, for the method shown. Some binding calls cover weakened binding; strength is not graded here. Where a sequence is shown, tags or fusion partners need not be part of it. Each block holds one binder with its values, some of them ahead of it.
Molecular target: VelB (yeast two-hybrid fusion, full length) (Aspergillus nidulans) (UniProt C8VTS4)
Assay: two-hybrid; directed yeast two-hybrid based on the LexA DNA binding domain (bait pTLexA, prey pGAD424) in S. cerevisiae L40; histidine growth reporter and lacZ X-gal colorimetric reporter

Sequences of proteins named here, by UniProt entry; tags and fusion partners are left off.
UniProt C8VTS4: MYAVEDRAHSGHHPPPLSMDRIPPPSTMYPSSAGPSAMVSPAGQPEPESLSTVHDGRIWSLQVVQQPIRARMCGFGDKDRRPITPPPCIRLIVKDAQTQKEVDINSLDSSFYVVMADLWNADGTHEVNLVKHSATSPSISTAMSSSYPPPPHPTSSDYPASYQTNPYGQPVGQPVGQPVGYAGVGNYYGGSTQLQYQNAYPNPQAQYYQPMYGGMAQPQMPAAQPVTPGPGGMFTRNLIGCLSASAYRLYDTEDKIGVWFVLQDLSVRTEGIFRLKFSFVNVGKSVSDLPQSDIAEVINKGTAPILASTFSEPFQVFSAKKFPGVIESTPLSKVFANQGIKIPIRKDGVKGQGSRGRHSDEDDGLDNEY

binding: binds
B1: VeA N terminus (1-235 aa) (yeast two-hybrid fusion) (domain or fragment, UniProt C8VTV4 1-235)
chain: MATLAAPPPPLGESGNSNSVSRITREGKKITYKLNIMQQPKRARACGQGSKSHTDRRPVDPPPVIELNIFESDPHDDSNKTDITFVYNANFFLFATLEPERPIATGKLMTNQGSPVLTGVPVAGVAYLDKPNRAGYFIFPDLSVRNEGSYRFSFHLFEQIKDPKDATEGTQPMPSPVPGKLSSPQEFLEFRLEVISNPFIVYSAKKFPGLTTSTPISRMIAEQGCRVRIRRDVRM

binding: no binding
B2: velvet domain of VeA (29-235) (yeast two-hybrid fusion) (domain or fragment, UniProt C8VTV4 29-235)
chain: KITYKLNIMQQPKRARACGQGSKSHTDRRPVDPPPVIELNIFESDPHDDSNKTDITFVYNANFFLFATLEPERPIATGKLMTNQGSPVLTGVPVAGVAYLDKPNRAGYFIFPDLSVRNEGSYRFSFHLFEQIKDPKDATEGTQPMPSPVPGKLSSPQEFLEFRLEVISNPFIVYSAKKFPGLTTSTPISRMIAEQGCRVRIRRDVRM

Source: PMC3547832, “Secondary Metabolism and Development Is Mediated by LlmF Control of VeA Subcellular Localization in Aspergillus nidulans” (PLoS Genetics, 2013)
